Measurements reported in PubChem BioAssay AID504804 (Drosophila RNAi Screening Center, 2011)

- Test: 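Knock-downs shielding fly cells from apoptosis caused by DNA damage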 (primary screen)
- System: Drosophila Kc cells
- Knock-down reagent: long dsRNA against Drosophila genes, 0.5 µg dsRNA per well
- Timing: 96 h (48 h knock-down, then 48 h drug)
- Conditions: doxorubicin 5 µg/ml for 48 h, added 48 h after dsRNA
- Detection: 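Luminescent ATP counts per replicate, not normalised, reflecting viable cells after 48 h dsRNA knock-down followed by 48 h of 5 µg/ml doxorubicin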
- Direction: raw ATP luminescence: higher = more viable cells, protection from doxorubicin
- Call rule: 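z-score of 2 or more over plate mean in both duplicates, retained only when retests and separate dsRNAs confirm the protection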
The screen tested about 19,000 reagents; this is a random part of those that have a named target and a result. In the full data, 47 (0.25%) were called active. 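Signals are raw, not normalised; exact z-scores behind calls not deposited; actives needed confirmation, so some wells reaching 2 SD are inactive.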 A plus sign joins genes that one reagent is predicted to hit. No sequences are given here.

What did the screen give for TotA (GeneID 44121) [DRSC13448]?
raw ATP luminescence, replicate 1: 1.33e5; raw ATP luminescence, replicate 2: 1.71e5; outcome: inactive

For Apc (GeneID 44642) [DRSC14114], what was measured?
raw ATP luminescence, replicate 1: 65540; raw ATP luminescence, replicate 2: 34990; outcome: inactive

How did the screen score Syp (GeneID 42460) [DRSC13444]?
raw ATP luminescence, replicate 1: 2.23e5; raw ATP luminescence, replicate 2: 2.40e5; outcome: inactive

What did the screen give for Syp (GeneID 42460) [DRSC15286]?
raw ATP luminescence, replicate 1: 43633; raw ATP luminescence, replicate 2: 51393; outcome: inactive

For vg (GeneID 36421) [DRSC07715], what does the deposit list?
SD above plate mean: 2 to 3 SD above plate mean; raw ATP luminescence, replicate 1: 2.20e5; raw ATP luminescence, replicate 2: 2.15e5; outcome: inactive

What did the screen give for CG2818 (GeneID 33597) [DRSC00540]?
raw ATP luminescence, replicate 1: 1.13e5; raw ATP luminescence, replicate 2: 80657; outcome: inactive

For CG16789 (GeneID 41154) [DRSC15155], what does the deposit list?
raw ATP luminescence, replicate 1: 58697; raw ATP luminescence, replicate 2: 56310; outcome: inactive

How did the screen score mTerf5 (GeneID 42182) [DRSC16209]?
raw ATP luminescence, replicate 1: 43807; raw ATP luminescence, replicate 2: 39187; outcome: inactive

For CG30289 (GeneID 246532) [DRSC03870], what does the deposit list?
raw ATP luminescence, replicate 1: 66107; raw ATP luminescence, replicate 2: 69740; outcome: inactive

What is on record for CG13454 (GeneID 39676) [DRSC10001]?
raw ATP luminescence, replicate 1: 1.79e5; raw ATP luminescence, replicate 2: 1.97e5; outcome: inactive

With CG7289 (GeneID 33372) [DRSC00697], how do the results read?
raw ATP luminescence, replicate 1: 1.11e5; raw ATP luminescence, replicate 2: 88170; outcome: inactive

How did the screen score CG15219 (GeneID 49992) [DRSC03715]?
raw ATP luminescence, replicate 1: 56090; raw ATP luminescence, replicate 2: 32233; outcome: inactive

Which result is listed for ATPsynG (GeneID 46069) [DRSC02928]?
raw ATP luminescence, replicate 1: 38080; raw ATP luminescence, replicate 2: 66230; outcome: inactive

What is on record for CG14269 (GeneID 31312) [DRSC17912]?
raw ATP luminescence, replicate 1: 53770; raw ATP luminescence, replicate 2: 58820; outcome: inactive

For CG31789 (GeneID 318943) [DRSC01645], what was measured?
raw ATP luminescence, replicate 1: 2.92e5; raw ATP luminescence, replicate 2: 2.55e5; outcome: inactive

How did the screen score Dic4 (GeneID 40039) [DRSC10317]?
raw ATP luminescence, replicate 1: 62433; raw ATP luminescence, replicate 2: 42100; outcome: inactive

With Ire1 (GeneID 42358) [DRSC15606], how do the results read?
raw ATP luminescence, replicate 1: 90680; raw ATP luminescence, replicate 2: 53970; outcome: inactive

Already shown: an excerpt of the list.
CG16789 (GeneID 41154) [DRSC15155] → raw ATP luminescence, replicate 1 = 58697; raw ATP luminescence, replicate 2 = 56310; outcome = inactive
mTerf5 (GeneID 42182) [DRSC16209] → raw ATP luminescence, replicate 1 = 43807; raw ATP luminescence, replicate 2 = 39187; outcome = inactive
CG30289 (GeneID 246532) [DRSC03870] → raw ATP luminescence, replicate 1 = 66107; raw ATP luminescence, replicate 2 = 69740; outcome = inactive
CG13454 (GeneID 39676) [DRSC10001] → raw ATP luminescence, replicate 1 = 1.79e5; raw ATP luminescence, replicate 2 = 1.97e5; outcome = inactive

The results go on:
What did the screen give for BomT3 (GeneID 42598) [DRSC13537]?
raw ATP luminescence, replicate 1: 1.68e5; raw ATP luminescence, replicate 2: 1.93e5; outcome: inactive

What is on record for BomT3 (GeneID 42598) [DRSC15871]?
raw ATP luminescence, replicate 1: 56810; raw ATP luminescence, replicate 2: 77810; outcome: inactive

Which result is listed for Agpat3 (GeneID 39820) [DRSC10445]?
raw ATP luminescence, replicate 1: 24697; raw ATP luminescence, replicate 2: 22450; outcome: inactive

For gammaCOP (GeneID 43717) [DRSC16955], how do the results read?
raw ATP luminescence, replicate 1: 55230; raw ATP luminescence, replicate 2: 54620; outcome: inactive

How did the screen score Pstk + CG14210 + Tim9b [DRSC19566]?
raw ATP luminescence, replicate 1: 3.21e5; raw ATP luminescence, replicate 2: 2.77e5; outcome: inactive

For blw (GeneID 37617) [DRSC04675], what was measured?
raw ATP luminescence, replicate 1: 54707; raw ATP luminescence, replicate 2: 41087; outcome: inactive

For Mondo (GeneID 35402) [DRSC02667], what does the deposit list?
raw ATP luminescence, replicate 1: 58570; raw ATP luminescence, replicate 2: 51467; outcome: inactive

For Mondo (GeneID 35402) [DRSC02668], how do the results read?
raw ATP luminescence, replicate 1: 47890; raw ATP luminescence, replicate 2: 42563; outcome: inactive

For CG13110 (GeneID 34253) [DRSC02208], how do the results read?
raw ATP luminescence, replicate 1: 31893; raw ATP luminescence, replicate 2: 71397; outcome: inactive

With uri (GeneID 37924) [DRSC04111], what does the deposit list?
raw ATP luminescence, replicate 1: 61053; raw ATP luminescence, replicate 2: 71750; outcome: inactive

Which result is listed for CG12645 (GeneID 31947) [DRSC17851]?
raw ATP luminescence, replicate 1: 4.27e5; raw ATP luminescence, replicate 2: 3.74e5; outcome: inactive
